# Experimental data taken from PubChem BioAssay AID588590 (National Center for Advancing Translational Sciences (NCATS), 2011).
# Sequences of proteins named here, by UniProt entry; tags and fusion partners are left off. A change or cut given only in a name is not applied to a line headed by its entry.
# UniProt Q9UNA4: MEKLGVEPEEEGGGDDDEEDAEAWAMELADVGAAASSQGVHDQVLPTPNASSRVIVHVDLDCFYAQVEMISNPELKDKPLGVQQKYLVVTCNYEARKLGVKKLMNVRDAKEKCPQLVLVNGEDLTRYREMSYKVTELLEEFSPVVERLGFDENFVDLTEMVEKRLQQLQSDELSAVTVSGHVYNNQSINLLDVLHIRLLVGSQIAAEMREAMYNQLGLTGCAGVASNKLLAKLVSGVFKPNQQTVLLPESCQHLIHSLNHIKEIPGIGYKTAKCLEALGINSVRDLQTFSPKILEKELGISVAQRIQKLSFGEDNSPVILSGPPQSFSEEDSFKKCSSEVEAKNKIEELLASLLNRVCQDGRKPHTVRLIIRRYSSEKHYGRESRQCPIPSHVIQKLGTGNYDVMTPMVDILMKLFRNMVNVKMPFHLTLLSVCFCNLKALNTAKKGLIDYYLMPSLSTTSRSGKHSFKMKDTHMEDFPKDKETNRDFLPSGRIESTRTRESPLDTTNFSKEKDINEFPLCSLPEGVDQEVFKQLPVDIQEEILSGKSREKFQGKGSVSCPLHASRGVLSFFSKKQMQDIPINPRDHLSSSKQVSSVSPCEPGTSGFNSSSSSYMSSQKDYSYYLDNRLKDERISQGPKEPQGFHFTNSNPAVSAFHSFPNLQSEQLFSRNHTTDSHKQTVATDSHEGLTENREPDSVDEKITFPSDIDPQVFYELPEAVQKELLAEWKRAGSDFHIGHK
# About 4,000 (1%) of roughly 390,000 compounds were called active. Inconclusive means that the source gave no clear call. Such entries were picked first, then a sample of the others. Calls follow the shape of the dose curve; as a rule, active = well fitted inhibition curve with a large enough effect; inconclusive = small, poorly fitted or top-dose-only effect, or another doubt; inactive = no such curve, though single readings can be large or run the other way. Potencies of inconclusive entries are doubtful fits and often do not repeat.
# Target: DNA polymerase iota (Homo sapiens) (UniProt Q9UNA4)
# Test: qHTS for Inhibitors of Polymerase Iota
# Conditions: Pol iota fluorescent replication assay, 10 min; series mostly up to 115 µM; activity, negative = inhibition: at the top concentration
# Method in brief: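 Fluorescent replication assay read twice, at 0 min and 10 min after adding 50 nM (final) substrate. Enzyme (10 nM) and compounds were first incubated 15 min at room temperature; enzyme-free buffer wells were negative controls.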
# Potency is read from the fitted curve at half-maximal effect.
SMILES,Potency,"activity, negative = inhibition"
CCc1ccc(CNCc2c(C(=O)O)n(Cc3ccc(F)cc3Cl)c3cc(OC)ccc23)cc1,"inconclusive: 79.4 µM [inhibitor, single point]",–
CCc1ccc(N/C(SC)=C(/C#N)C(N)=O)cc1,"inconclusive: 79.4 µM [inhibitor, partial curve]",–
CC(=O)Cc1nsc(NC(=O)c2ccc(-c3cccc(Cl)c3)o2)n1,"inconclusive: 89.1 µM [inhibitor, partial curve, poor fit]",–
Cc1cccc(-n2ncc3c(N4CCN(c5ccccc5)CC4)ncnc32)c1,"inconclusive: 31.6 µM [inhibitor, partial curve, poor fit]",–
CCN(CC)c1ccc(NC(=O)Cn2nc(C)n3cccc3c2=O)c(C)c1,"inconclusive: 89.1 µM [inhibitor, single point]",–
COc1cc(/C=C(\C#N)C(=O)Nc2cccc(C(=O)O)c2)ccc1OCc1ccc(F)cc1,"inconclusive: 35.5 µM [inhibitor, single point]",–
CN(CCCC1CCCC1)C(=O)c1cc(COc2c(F)cccc2F)on1,"inconclusive: 70.8 µM [inhibitor, partial curve, poor fit]",–
CC(C(Sc1ccccc1N)c1ccccc1)[N+](=O)[O-] (stereo unspecified),"inconclusive: 12.6 µM [inhibitor, partial curve]",–
O=c1c(S(=O)(=O)c2cccc(Cl)c2)cn(Cc2ccccc2)c2cc(N3CCOCC3)c(F)cc12,–,inactive: 7.89%
CCCNC(=O)CCSc1nc(-c2ccc3c(c2)OCO3)cc(C(F)(F)F)n1,–,inactive: 26.7%
C/C(=C\C(=O)c1ccc(Cl)s1)N(C)C,"inconclusive: 3.55 µM [inhibitor, partial curve, poor fit]",–
COc1cc2c(cc1NC(=O)c1cncc(Br)c1)oc1ccccc12,"inconclusive: 35.5 µM [inhibitor, single point]",–
CC1Sc2ccc(S(=O)(=O)N3CCC(C(=O)Nc4ccc(Cl)cc4)CC3)cc2NC1=O (stereo unspecified),"inconclusive: 79.4 µM [inhibitor, single point]",–
CC(C)[C@H](CN1CCC[C@H]1CN1C(N)=NC[C@@H]1Cc1ccccc1)N1C[C@@H](Cc2ccccc2)N(CCc2ccc(Cl)c(Cl)c2)C1=N,"inconclusive: 1.78 µM [inhibitor, partial curve, poor fit]",–
COc1ccc(/C=N/NC(=O)CC#N)cc1Oc1nc(Cl)ncc1F,"inconclusive: 31.6 µM [inhibitor, partial curve, poor fit]",–
Cc1ccccc1OCC(=O)Nc1nnc(-c2ccncc2)s1,"inconclusive: 11.2 µM [inhibitor, full curve, poor fit]",–
